Data as given in PubChem BioAssay (EPA / NIEHS).
All entries are inconclusive by the source's own rule. Clear calls are listed elsewhere. How the source made its calls: active means hit-call score of the fitted dose curve at least 0.9, where 1 is the maximum; inconclusive means response in the unintended direction; inactive means score below 0.9.

Chains of the proteins cited; added tags and fusions are not shown.
UniProt Q13133, whole entry: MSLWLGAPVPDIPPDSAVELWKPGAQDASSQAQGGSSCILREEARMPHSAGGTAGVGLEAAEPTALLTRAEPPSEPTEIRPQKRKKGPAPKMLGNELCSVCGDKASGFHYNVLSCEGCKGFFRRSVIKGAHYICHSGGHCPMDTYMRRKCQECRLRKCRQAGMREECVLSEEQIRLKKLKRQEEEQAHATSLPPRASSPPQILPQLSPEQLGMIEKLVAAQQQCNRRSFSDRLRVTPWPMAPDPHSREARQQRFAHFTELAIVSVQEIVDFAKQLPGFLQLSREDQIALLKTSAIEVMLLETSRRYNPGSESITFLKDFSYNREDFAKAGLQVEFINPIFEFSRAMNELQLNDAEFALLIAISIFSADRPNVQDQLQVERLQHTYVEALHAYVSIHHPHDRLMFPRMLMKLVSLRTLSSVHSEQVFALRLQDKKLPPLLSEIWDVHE
UniProt P55055, whole entry: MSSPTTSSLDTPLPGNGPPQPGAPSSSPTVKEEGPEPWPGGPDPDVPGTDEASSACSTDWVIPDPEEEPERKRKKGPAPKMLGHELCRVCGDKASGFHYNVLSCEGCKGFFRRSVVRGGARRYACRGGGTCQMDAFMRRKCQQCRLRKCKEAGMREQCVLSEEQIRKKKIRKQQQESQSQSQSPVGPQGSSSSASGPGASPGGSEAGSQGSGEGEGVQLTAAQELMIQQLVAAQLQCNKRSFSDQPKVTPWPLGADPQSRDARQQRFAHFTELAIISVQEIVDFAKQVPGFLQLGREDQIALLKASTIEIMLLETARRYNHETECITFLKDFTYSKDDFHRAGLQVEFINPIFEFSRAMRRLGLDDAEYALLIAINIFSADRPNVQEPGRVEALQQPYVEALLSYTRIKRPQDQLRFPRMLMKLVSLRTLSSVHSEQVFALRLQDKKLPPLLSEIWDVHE
UniProt Q07869, whole entry: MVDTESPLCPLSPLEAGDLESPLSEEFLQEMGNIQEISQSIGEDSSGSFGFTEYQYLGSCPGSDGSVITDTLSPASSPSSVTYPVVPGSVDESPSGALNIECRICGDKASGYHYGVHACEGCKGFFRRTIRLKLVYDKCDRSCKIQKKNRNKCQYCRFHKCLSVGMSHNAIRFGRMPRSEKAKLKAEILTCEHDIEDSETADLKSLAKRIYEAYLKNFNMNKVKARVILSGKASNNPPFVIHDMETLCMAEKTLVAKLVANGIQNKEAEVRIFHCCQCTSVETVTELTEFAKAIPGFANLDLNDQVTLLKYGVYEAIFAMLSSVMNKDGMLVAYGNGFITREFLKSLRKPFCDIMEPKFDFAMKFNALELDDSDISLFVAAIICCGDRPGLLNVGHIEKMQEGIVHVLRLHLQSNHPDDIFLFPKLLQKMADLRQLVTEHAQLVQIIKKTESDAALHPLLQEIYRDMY
UniProt P37231, whole entry: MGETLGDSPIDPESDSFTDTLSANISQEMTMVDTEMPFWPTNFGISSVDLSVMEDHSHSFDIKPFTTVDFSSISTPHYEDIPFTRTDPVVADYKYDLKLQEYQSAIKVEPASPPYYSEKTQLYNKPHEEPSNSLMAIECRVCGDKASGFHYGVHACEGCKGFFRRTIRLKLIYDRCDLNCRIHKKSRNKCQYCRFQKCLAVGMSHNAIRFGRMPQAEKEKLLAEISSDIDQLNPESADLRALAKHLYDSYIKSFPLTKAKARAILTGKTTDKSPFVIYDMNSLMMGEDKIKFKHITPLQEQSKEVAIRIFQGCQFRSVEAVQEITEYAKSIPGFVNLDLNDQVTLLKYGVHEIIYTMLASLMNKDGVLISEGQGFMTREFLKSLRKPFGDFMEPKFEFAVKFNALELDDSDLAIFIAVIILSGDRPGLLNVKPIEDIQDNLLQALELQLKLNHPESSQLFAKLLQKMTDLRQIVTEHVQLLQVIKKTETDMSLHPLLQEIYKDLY
UniProt O75469, whole entry: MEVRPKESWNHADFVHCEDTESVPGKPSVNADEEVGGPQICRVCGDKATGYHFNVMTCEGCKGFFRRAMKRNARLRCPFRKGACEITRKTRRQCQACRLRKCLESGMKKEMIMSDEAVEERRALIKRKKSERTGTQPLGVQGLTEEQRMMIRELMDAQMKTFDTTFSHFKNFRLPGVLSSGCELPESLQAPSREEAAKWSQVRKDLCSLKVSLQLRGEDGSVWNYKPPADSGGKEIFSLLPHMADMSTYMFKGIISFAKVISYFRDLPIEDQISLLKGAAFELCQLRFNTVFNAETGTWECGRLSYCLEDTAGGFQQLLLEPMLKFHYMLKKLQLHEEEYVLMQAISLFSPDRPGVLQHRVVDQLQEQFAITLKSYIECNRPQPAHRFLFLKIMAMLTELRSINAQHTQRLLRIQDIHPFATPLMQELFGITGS
UniProt P51449, whole entry: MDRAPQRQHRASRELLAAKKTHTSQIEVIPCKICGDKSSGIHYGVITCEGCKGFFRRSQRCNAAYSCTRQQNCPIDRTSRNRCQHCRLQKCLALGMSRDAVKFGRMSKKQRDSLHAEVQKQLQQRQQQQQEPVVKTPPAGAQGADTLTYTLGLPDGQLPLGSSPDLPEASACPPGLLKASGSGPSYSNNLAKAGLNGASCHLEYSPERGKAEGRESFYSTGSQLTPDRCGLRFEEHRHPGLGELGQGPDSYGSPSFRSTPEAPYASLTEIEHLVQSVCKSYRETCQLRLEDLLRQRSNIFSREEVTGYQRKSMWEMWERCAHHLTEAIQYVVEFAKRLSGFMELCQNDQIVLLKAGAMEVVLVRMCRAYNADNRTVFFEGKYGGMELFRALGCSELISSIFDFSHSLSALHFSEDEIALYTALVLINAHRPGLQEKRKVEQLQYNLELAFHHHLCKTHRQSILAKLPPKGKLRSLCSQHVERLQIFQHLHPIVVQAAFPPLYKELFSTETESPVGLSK
UniProt Q01717, whole entry: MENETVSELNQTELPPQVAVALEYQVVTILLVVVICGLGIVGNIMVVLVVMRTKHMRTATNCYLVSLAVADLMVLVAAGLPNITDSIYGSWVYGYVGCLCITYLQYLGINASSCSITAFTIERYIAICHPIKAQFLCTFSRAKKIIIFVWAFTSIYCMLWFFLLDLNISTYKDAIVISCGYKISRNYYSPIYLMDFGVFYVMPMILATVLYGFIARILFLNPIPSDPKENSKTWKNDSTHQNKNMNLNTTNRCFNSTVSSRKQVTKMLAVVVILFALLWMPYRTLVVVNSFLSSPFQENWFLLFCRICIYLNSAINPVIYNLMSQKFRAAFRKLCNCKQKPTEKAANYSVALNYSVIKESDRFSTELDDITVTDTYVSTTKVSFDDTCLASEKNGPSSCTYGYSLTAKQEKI
UniProt P10275, whole entry: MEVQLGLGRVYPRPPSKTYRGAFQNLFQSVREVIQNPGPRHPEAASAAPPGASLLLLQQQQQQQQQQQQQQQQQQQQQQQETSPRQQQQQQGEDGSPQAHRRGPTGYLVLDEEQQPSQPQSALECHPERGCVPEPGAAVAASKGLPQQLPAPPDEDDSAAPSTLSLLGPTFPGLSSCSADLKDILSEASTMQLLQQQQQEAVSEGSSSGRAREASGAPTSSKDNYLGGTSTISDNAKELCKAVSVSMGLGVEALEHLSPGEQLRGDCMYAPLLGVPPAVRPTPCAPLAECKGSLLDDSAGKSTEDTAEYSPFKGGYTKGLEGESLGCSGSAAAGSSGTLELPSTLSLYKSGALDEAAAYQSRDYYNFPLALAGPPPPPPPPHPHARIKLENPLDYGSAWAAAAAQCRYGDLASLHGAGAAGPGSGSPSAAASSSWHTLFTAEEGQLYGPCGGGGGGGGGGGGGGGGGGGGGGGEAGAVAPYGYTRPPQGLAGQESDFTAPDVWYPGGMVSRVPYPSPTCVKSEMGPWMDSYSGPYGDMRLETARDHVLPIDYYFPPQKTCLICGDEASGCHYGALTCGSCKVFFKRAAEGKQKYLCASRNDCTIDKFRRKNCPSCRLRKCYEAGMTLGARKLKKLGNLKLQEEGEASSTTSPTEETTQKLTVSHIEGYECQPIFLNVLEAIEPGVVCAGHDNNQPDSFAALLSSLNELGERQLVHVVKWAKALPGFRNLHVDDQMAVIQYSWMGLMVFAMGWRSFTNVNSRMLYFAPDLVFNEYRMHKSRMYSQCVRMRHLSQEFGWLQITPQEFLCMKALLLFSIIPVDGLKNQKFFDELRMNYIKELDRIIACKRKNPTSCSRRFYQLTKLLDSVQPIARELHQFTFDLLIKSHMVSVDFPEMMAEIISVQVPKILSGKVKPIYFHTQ
UniProt P19785, whole entry: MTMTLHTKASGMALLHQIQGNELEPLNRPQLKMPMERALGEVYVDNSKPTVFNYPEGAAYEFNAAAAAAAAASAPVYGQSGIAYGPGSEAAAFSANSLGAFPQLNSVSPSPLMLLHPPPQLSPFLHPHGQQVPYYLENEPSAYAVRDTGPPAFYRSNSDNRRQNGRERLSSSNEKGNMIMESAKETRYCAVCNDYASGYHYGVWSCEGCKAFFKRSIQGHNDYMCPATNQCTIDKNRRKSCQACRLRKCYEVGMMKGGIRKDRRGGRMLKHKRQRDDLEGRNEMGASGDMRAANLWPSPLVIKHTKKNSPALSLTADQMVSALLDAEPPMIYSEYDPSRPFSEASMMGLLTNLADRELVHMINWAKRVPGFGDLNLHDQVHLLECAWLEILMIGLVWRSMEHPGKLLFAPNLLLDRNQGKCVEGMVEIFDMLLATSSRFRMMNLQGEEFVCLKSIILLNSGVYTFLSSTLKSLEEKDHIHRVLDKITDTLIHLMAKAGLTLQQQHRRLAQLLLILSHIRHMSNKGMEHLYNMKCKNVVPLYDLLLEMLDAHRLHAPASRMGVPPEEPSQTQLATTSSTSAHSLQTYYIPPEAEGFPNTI
UniProt Q96RI1, whole entry: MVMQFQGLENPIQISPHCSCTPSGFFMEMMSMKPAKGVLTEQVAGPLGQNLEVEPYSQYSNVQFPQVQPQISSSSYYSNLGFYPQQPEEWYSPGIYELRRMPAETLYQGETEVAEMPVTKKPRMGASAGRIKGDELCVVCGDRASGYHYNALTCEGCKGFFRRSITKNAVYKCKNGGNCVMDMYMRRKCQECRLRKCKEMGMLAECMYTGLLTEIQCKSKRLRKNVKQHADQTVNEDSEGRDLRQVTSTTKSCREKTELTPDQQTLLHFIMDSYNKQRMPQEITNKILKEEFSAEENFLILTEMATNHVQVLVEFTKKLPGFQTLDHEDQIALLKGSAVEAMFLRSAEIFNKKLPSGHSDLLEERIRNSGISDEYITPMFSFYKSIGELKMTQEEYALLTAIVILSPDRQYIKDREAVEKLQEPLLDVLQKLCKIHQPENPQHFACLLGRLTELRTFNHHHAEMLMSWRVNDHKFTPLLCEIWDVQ
UniProt P19793, whole entry: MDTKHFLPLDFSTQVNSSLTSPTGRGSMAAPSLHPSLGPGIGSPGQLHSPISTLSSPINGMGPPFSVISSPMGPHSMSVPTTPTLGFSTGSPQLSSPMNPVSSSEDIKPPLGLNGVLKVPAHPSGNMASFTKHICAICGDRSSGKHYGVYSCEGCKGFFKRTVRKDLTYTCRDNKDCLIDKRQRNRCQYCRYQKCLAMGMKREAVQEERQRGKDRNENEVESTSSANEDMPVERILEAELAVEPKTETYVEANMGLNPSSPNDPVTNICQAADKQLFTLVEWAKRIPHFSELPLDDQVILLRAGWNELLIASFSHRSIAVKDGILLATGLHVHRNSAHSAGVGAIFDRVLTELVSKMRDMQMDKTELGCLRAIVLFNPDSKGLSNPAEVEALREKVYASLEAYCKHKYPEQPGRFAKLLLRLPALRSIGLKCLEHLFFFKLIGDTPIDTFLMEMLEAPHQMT

Assays:
[1] = target: Oxysterols receptor LXR-alpha (Homo sapiens) (UniProt Q13133); assay: ATG_LXRa_TRANS: Attagene TRANS-FACTORIAL HepG2 Assay for human Liver X Receptor alpha (LXRa) (AID 2282980); settings: HepG2 Attagene TRANS reporter, LXRa transactivation
Method in brief: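 Transfect HepG2 with GAL4-UAS multiplex reporter constructs (TRANS format, chimeric receptor-GAL4); treat 24 h; extract RNA, reverse-transcribe, PCR-amplify, FAM-label, HpaI-digest; resolve fragments by capillary electrophoresis. Upward response vs DMSO.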

[2] = target: Oxysterols receptor LXR-beta (Homo sapiens) (UniProt P55055); assay: ATG_LXRb_TRANS: Attagene TRANS-FACTORIAL HepG2 Assay for human Liver X Receptor beta (LXRb) (AID 2282981); settings: HepG2 Attagene TRANS GAL4-LXRb reporter, mRNA
Method in brief: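 After 24 h chemical treatment of transfected HepG2 cells carrying exogenous NR-Gal4 chimeras, reporter mRNA was quantified by fluorescent RT-PCR and capillary electrophoresis; activity taken as increase over DMSO controls.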

[3] = ATG_M_06_TRANS: Attagene TRANS-FACTORIAL HepG2 Assay for M06 Transcription Factor (Internal Marker) (AID 2282983); settings: HepG2 Attagene TRANS M06 internal marker reporter;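 further: reporter transcript level by RT-PCR then capillary electrophoresis fluorescence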
Method in brief: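 Background control endpoint: reporter mRNA from transiently transfected HepG2 after 24 h dosing, detected by RT-PCR with capillary electrophoresis fluorescence. Analysed for gain versus DMSO.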

[4] = target: human Peroxisome Proliferator-activated Receptor alpha (PPARa), PPARA (gene 5465) (UniProt Q07869); assay: ATG_PPARa_TRANS: Attagene TRANS-FACTORIAL HepG2 Assay for human Peroxisome Proliferator-activated Receptor alpha (PPARa) (AID 2283001)
Method in brief: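 Reporter transcripts quantified by RT-PCR plus capillary electrophoresis after 24 h treatment, fitted upward relative to DMSO. Cells: human HepG2 transiently carrying multiple GAL4-UAS reporter units driven by NR-Gal4 chimeras.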

[5] = target: Peroxisome proliferator-activated receptor gamma (Homo sapiens) (UniProt P37231); assay: ATG_PPARg_TRANS: Attagene TRANS-FACTORIAL HepG2 Assay for human Peroxisome Proliferator-activated Receptor-gamma (PPARg) (AID 2283007)
Method in brief: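 After 24 h of chemical exposure, transfected HepG2 cells carrying PPARγ-Gal4 chimera reporter constructs are lysed for RNA. Reporter transcripts are measured by RT-PCR and capillary electrophoresis with fluorescent labelling, and gain of signal is fitted versus DMSO.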

[6] = target: Nuclear receptor subfamily 1 group I member 2 (Homo sapiens) (UniProt O75469); assay: ATG_PXR_TRANS: Attagene TRANS-FACTORIAL HepG2 Assay for human Pregnane X Receptor (PXR) (AID 2283008)
Method in brief: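 Multiplexed TRANS reporter panel in HepG2; this component tracks PXR-Gal4-driven reporter mRNA after 24 h dosing, measured by RT-PCR with capillary electrophoresis fluorescence, fitted against DMSO.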

[7] = target: human RAR-related Orphan Receptor gamma (RORg), RORC (gene 6097) (UniProt P51449); assay: ATG_RORg_TRANS: Attagene TRANS-FACTORIAL HepG2 Assay for human RAR-related Orphan Receptor gamma (RORg) (AID 2283011);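 further: potency for induction of reporter transcripts above DMSO so activators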
Method in brief: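 First, HepG2 liver cells were transfected with GAL4-UAS-driven reporter constructs and the RORg-Gal4 fusion. Next, they were treated with chemical for 24 h. Finally, reporter mRNA was quantified by RT-PCR and capillary electrophoresis, with upward activity fitted against DMSO.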

[8] = target: rat Thyrotropin Releasing Hormone Receptor (TRH), Trhr (gene 25570) (UniProt Q01717); assay: NVS_GPCR_rTRH: NovaScreen (NVS) G Protein-Coupled Receptor Assay for rat Thyrotropin Releasing Hormone Receptor (TRH) (AID 2283329);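 further: hit means lower bound tracer signal versus DMSO baseline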
Method in brief: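 Test compounds are screened at 25 uM in duplicate against radioligand binding in rat forebrain membranes, with active pairs followed up over a concentration range. Detection uses filter-based radiodetection after a 4 h exposure.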

[9] = target: Androgen Receptor/SRC-1 Co-activator, AR (gene 367) (UniProt P10275); assay: OT_AR_ARSRC1_0480: Odyssey Thera (OT) 8-hour HEK293T Protein-Complementation Assay for Androgen Receptor/SRC-1 Co-activator (AID 2283354);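 further: hits raise the complementation signal above DMSO so AC50 marks enhancers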
Method in brief: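 Reconstituted split-Venus YFP signal from AR–SRC-1 interaction, read by imaging 8 h post-dose in stable HEK293T lines. The 488 nm nucleus-to-cytoplasm ratio (≥400 cells/image) was fitted upward against DMSO.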

[10] = target: Nuclear receptor subfamily 1 group I member 2 (Homo sapiens) (UniProt O75469); assay: NVS_NR_hPXR: NovaScreen (NVS) Nuclear Receptor Binding Assay for human Pregnane X Receptor (PXR) (AID 2283365);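 further: a drop in FRET signal versus DMSO baseline means the compound binds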
Method in brief: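 Human PXR protein, cell-free; compound added, incubated 2 h, TR-FRET read. Signal decrease vs DMSO = binding. Screened 25 uM duplicate, actives re-run as dilution series.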

[11] = target: mouse Estrogen Receptor alpha (Era), Esr1 (gene 13982) (UniProt P19785); assay: NVS_NR_mERa: NovaScreen (NVS) Nuclear Receptor Binding Assay for mouse Estrogen Receptor alpha (Era) (AID 2283378);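 further: hit means loss of bound radioligand signal relative to DMSO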
Method in brief: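 Extracted mouse Era incubated with tritiated or iodinated radioligand plus test chemical, 18 h. Bound fraction separated on filters, counted by scintillation. DMSO = negative control/baseline; duplicate single-point at 25 uM, then concentration-response follow-up.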

[12] = target: Bile acid receptor (Homo sapiens) (UniProt Q96RI1); assay: OT_FXR_FXRSRC1_1440: Odyssey Thera (OT) 24-hour HEK293T Protein-Complementation Assay for Farnesoid X receptor/SRC-1 Co-activator (AID 2283384)
Method in brief: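 Protein-fragment complementation: FXR and SRC-1 fused to reporter fragments that reassemble on interaction, read by fluorescence intensity. Human HEK293T cells measured 24 h post-dose; positive-direction fit versus DMSO.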

[13] = target: Retinoic acid receptor RXR-alpha (Homo sapiens) (UniProt P19793); assay: OT_NURR1_NURR1RXRa_0480: Odyssey Thera (OT) 8-hour HEK293T Protein Complementation Assay for Nurr1/retinoid X receptor (RXR) (AID 2283385)
Method in brief: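 Interaction of Nurr1 with RXRα read as reconstituted reporter fluorescence in a HEK293T fragment-complementation system, 8 h post-treatment; increase over DMSO baseline analysed.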

[14] = ACEA_AR_antagonist_AUC_viability: ACEA Biosciences xCELLigence Real-Time Cell Analysis on Androgen Receptor Antagonism for Viability (AID 2283776);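 further: 22Rv1 human prostate cancer cells growing on impedance electrode plates; area under impedance growth curve at 80 h after dosing as viability; hits lower the growth signal relative to DMSO meaning cytotoxicity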
Method in brief: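 Viability endpoint from label-free cell-index monitoring: 22Rv1 cultures treated with an eight-point 1:4 dilution series starting at 100 uM final, AUC at 80 h fitted against DMSO.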

[15] = ACEA_ER_AUC_viability: ACEA Biosciences xCELLigence Real-Time Cell Analysis on Estrogen Receptor Agonism for Viability (AID 2283782);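 further: hit means loss of impedance signal meaning reduced cell growth or viability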
Method in brief: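 Viability endpoint: reduced impedance area under the curve relative to DMSO, recorded by real-time electrode sensing over ~80 h of continuous exposure. Duplicate plates of T47D in hormone-depleted medium; eight concentrations, 1:4 dilutions, 100 uM maximum.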

AR (gene 367) [16] = target: AR (gene 367) (UniProt P10275); assay: ACEA_AR_agonist_80hr: ACEA Biosciences xCELLigence Real-Time Cell Analysis on Androgen Receptor Agonism for Proliferation (AID 2283783);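 further: hits increase impedance growth signal above DMSO baseline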
Method in brief: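 Eight concentrations, 1:4 serial dilution from a 100 uM final top, in biological duplicate. Impedance-based real-time growth of 22Rv1 cells after overnight baseline, recorded hourly and read at 80 hours. Controls: testosterone, MG132, assay media.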

AR (gene 367) [17] = target: AR (gene 367) (UniProt P10275); assay: ACEA_AR_antagonist_80hr: ACEA Biosciences xCELLigence Real-Time Cell Analysis on Androgen Receptor Antagonism for Proliferation (AID 2283787);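 further: 22Rv1 human prostate cancer cells with growth followed by electrical impedance; hits lower the impedance growth signal relative to DMSO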
Method in brief: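 Impedance-based real-time growth of 22Rv1 prostate cells, read 80 h after dosing. Eight concentrations, 1:4 series, top 100 uM final (0.5% DMSO), n = 2; signal decrease scored against DMSO.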

[18] = target: Nucleoli Translocation, AR (gene 367) (UniProt P10275); assay: UPITT_HCI_U2OS_AR_TIF2_Nucleoli_Agonist: University of Pittsburgh U2OS Androgen Receptor-Transcriptional Intermediary Factor 2 (AR-TIF2) Agonism High Content Imaging Assay for Nucleoli Translocation (AID 2283998)
Method in brief: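 Readout is red (AR-RFP) fluorescence localized to nucleoli, measured by high-content imaging and analysed for increase relative to DMSO. Compound series spanned 0.195 to 50 uM final in 0.5% DMSO.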

[19] = CCTE_Deisenroth_AIME_384WELL_CTox_Active: Cytotoxicity Assessment (CTOX) in CCTE's 384-well Estrogen Receptor Transactivation Assay with AIME metabolic competence (metabolism positive), Deisenroth Lab (AID 2284037);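 further: chemicals first conditioned 2 h by alginate-bound induced rat liver S9 before cells; activity means signal loss indicating cell death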
Method in brief: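 Cytotoxicity in VM7Luc4E2 breast cells, 24 hour, measured as protease-substrate fluorescence loss, after 2-hour metabolic conditioning with induced rat hepatic S9 in alginate microspheres. Concentrations 0.002 - 200 uM, 10 points, bidirectional fitting.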

[20] = CCTE_Deisenroth_AIME_384WELL_CTox_Inactive: Cytotoxicity Assessment (CTOX) in CCTE's 384-well Estrogen Receptor Transactivation Assay without AIME metabolic competence (metabolism negative), Deisenroth Lab (AID 2284039);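 further: cell viability via live-cell protease substrate cleaved to fluorescent probe; cells exposed 24 h to medium preincubated 2 h with alginate-water beads without S9; loss of fluorescence signal means loss of viability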
Method in brief: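 Fluorescence from a live-cell protease substrate, read after 24 h in VM7Luc4E2 cells, indicated viability. Test medium came from a 2 h AIME step without hepatic S9 (alginate-water microspheres); concentrations spanned 0.002 - 200 uM, single technical replicate per run.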

Measured: AC50

O=[N+]([O-])OCC(CO[N+](=O)[O-])(CO[N+](=O)[O-])CO[N+](=O)[O-]
inconclusive: [1] | [2] 172 µM | [3] | [4] | [5] 100 µM | [6] 26.8 µM | [7] 2.79 µM | [8] 0.605 µM | [9] | [10] | [11] 6.36 µM | [12] 50 µM | [13] | [14] 0.191 µM | [15] 10.6 µM | AR (gene 367) [16] 0.659 µM | AR (gene 367) [17] 0.18 µM | [18] | [19] 0.00118 µM | [20] 0.0002 µM
